Measured values as given in paper PMC4120859.

Columns and labels:
[1] = target: GST-tagged NdrC-RBD (amino acid residues 1-299 of NdrC) (Dictyostelium discoideum); experiment: pull-down; 100 μg GST-RBD and glutathione sepharose beads with 400 μg Dictyostelium protein lysate (wild-type AX2 or ndrC-null cells), 4°C, 1 hour; Western blot with polyclonal antibodies against RasB, RasG, RasC or Rap1; only the target purified
[2] = target: GST-tagged NdrC-RBD (amino acid residues 1-299 of NdrC) (Dictyostelium discoideum); experiment: pull-down; 400 μg purified His-tagged Ras protein with 100 μg GST-RBD on glutathione sepharose beads, binding buffer, 4°C overnight; Western blot with anti-His tag antibody; both purified
[3] = target: GST-tagged NdrC-RBD (amino acid residues 1-299 of NdrC) (Dictyostelium discoideum); experiment: pull-down; GST-NdrC-RBD with wild-type AX2 cells expressing GFP-tagged Ras proteins; Western blot with anti-GFP antibodies; only the target purified
[4] = target: GST-tagged NdrC-RBD (amino acid residues 1-299 of NdrC) (Dictyostelium discoideum); experiment: condition: 400 μg of His-tagged Ras protein with 100 μg of GST-RBD; pull-down; 400 μg purified His-tagged Ras protein with 100 μg GST-RBD on glutathione sepharose beads, binding buffer, 4°C overnight; Western blot with anti-His tag antibody; both purified

B1: RasB, endogenous in Dictyostelium cell lysate (protein, UniProt P32252 1-197)
chain: MSVSNEYKLVVMGGGGVGKSALTIQFIQNHFIEEYDPTIEDSYRRQCQVDEDTCLLDILDTAGQDDYSAMRDQYMRTGQGFLCVYDVTSRTSFEEINVVREQIIRVKDNDKVPIVLVGNKCDLENLREVTEGEGSELAKSFSVPFLETSAKKRLNVDECFFEVVREIKKSLKEPGRSKKDKKGGILKKFKGGDCLIL
binding [1]: binds

B2: 6xHis-tagged constitutively activated RasB (G15T) (protein, UniProt P32252 1-197)
chain: B1 chain with G15T
binding [2]: binds

B3: 6xHis-tagged constitutively activated RasC (G13T) (protein, UniProt P32253 1-189)
chain: MSKLLKLVIVGDTGVGKSALTIQLTQNQFIAEYDPTIENSYRKQVNIDEEVYMLDILDTAGQEEYSAMRDQYIRSGRGFLIVYSIISRASFEAVTTFREQILRVKDLSTYPIVIIGNKADLPDKDRKVPPMEGKELAKSFGAPFLETSAKSRVNVEEAFFTLVREIKRWNQNPQNEEMLPPKKRGCIIL
binding [2]: binds

B4: GFP-tagged RasB (protein, UniProt P32252 1-197)
chain: B1 chain
binding [3]: binds

B5: RasC, endogenous in Dictyostelium cell lysate (protein, UniProt P32253 1-189)
chain: B3 chain with T13G
binding [1]: binds

B6: 6xHis-tagged wild-type RasS (protein, UniProt P32254 1-194)
chain: MFNFKLVLVGPGGVGKSCLTIQFIAQKFVDEYDPTLEDSYRKQTTVDGEECLLDIYDTAGQEDFSAVRDQYMRTGEGFLCVYSITYLQSFKEIHRLHNHLLKVKDLDSVPFVLVGNKCDLNEYREVSTAEGEELAKKLNCKFLETSAKERINVSESFYELVREVKKARQSNQHSNSQEQNTDQPIKKKKSCNLL
binding [4]: no binding

B7: 6xHis-tagged constitutively activated RasS (G12T) (protein, UniProt P32254 1-194)
chain: B6 chain with G12T
binding [4]: no binding

Residue numbers refer to the chain shown, from its start. Numbers in names are those of the source. No constants are given. Whether binding was seen depends on the method and setting. For some of these results: Binding calls can cover weak binding; strength is not graded here. For some of these results: Tags and fused reporters may be left off the sequences shown. For some of these results: In cells and extracts the contact can be indirect.
